# PubChem BioAssay AID1259254, NCATS | 2017
# Test: 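Finding genes that stop cells copying their DNA twice in one cycle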 (primary screen)
# Cell system: human HCT116 colorectal cancer cells
# Reagent: single siRNA against human genes
# Duration: 3 days
# Measured: 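Nuclei stained with Hoechst and imaged; cell-cycle phase assigned by DNA content; G2 share scaled per plate, non-targeting siRNA 0%, GMNN siRNA 100%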
# Scale: G2 robust z-score and G2 cells, % of GMNN control: higher = more G2 cells, more excess DNA replication; raw share of cells in G2: higher = larger share of cells with G2 DNA content
# Active means: 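An siRNA counts as active if its G2 robust z-score lies at least 5 MADs above the screen median; here such calls match roughly 38% of GMNN control or more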
# Shown is an unselected part of about 59,000 reagents tested. Of all reagents, about 1,550 (2.6%) got an active call. 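G2 share is only a proxy for re-replication; each gene was hit by three separate siRNAs, and active genes were retested.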 Raw values are not corrected between plates. A number with no mark means an inactive call. Reagents against one gene are numbered here. Not stated in the record: the amount of reagent.
target gene,reagent,G2 robust z-score,"G2 cells, % of GMNN control",raw share of cells in G2 (%)
OR10W1 (GeneID 81341),1,-0.855,-3.05,1.54
OR10W1 (GeneID 81341),2,4.89,37.4,20
OR10W1 (GeneID 81341),3,-0.595,-1.22,3.77
ETFA (GeneID 2108),1,-0.475,-0.376,3.52
ETFA (GeneID 2108),2,1.38,12.7,10.1
ETFA (GeneID 2108),3,3.29,26.1,14.7
OGFRP1 (GeneID 388906),1,-0.731,-2.18,2.46
OGFRP1 (GeneID 388906),2,-0.0206,2.82,5.84
OGFRP1 (GeneID 388906),3,1.34,12.4,8.03
DSPP (GeneID 1834),1,-0.262,1.12,5.83
DSPP (GeneID 1834),2,-0.084,2.38,4.96
DSPP (GeneID 1834),3,1.38,12.7,8.49
TCAP (GeneID 8557),1,-0.159,1.85,5.91
TCAP (GeneID 8557),2,8.47 (active),62.5,27.1
TCAP (GeneID 8557),3,-0.738,-2.23,3.53
CD1C (GeneID 911),1,-1.23,-5.66,2.65
CD1C (GeneID 911),2,-0.161,1.84,4.76
CD1C (GeneID 911),3,0.5,6.48,6.06
COX7A1 (GeneID 1346),1,-0.553,-0.926,3.78
COX7A1 (GeneID 1346),2,0.46,6.2,7.18
COX7A1 (GeneID 1346),3,4.61,35.4,17.9
CLCN7 (GeneID 1186),1,0.237,4.64,6.98
CLCN7 (GeneID 1186),2,-0.556,-0.944,4.46
CLCN7 (GeneID 1186),3,3.98,31,16.5
ZNF576 (GeneID 79177),1,-0.547,-0.882,4.2
ZNF576 (GeneID 79177),2,-0.687,-1.86,3.77
ZNF576 (GeneID 79177),3,0.181,4.24,3.82
MOSPD2 (GeneID 158747),1,-0.76,-2.38,2.75
MOSPD2 (GeneID 158747),2,-0.779,-2.51,2.12
MOSPD2 (GeneID 158747),3,0.891,9.24,5.68
DBF4B (GeneID 80174),1,-0.589,-1.18,2.05
DBF4B (GeneID 80174),2,-0.763,-2.4,3.45
DBF4B (GeneID 80174),3,0.515,6.59,7.19
PRB3 (GeneID 5544),1,0.0973,3.65,6.53
PRB3 (GeneID 5544),2,-0.441,-0.133,4.17
PRB3 (GeneID 5544),3,0.497,6.46,5.69
ITGB8 (GeneID 3696),1,1.92,16.4,10.2
ITGB8 (GeneID 3696),2,0.392,5.72,7.12
ITGB8 (GeneID 3696),3,3.36,26.6,15.8
CLIC4 (GeneID 25932),1,0.63,7.4,7.98
CLIC4 (GeneID 25932),2,-0.494,-0.505,4.61
CLIC4 (GeneID 25932),3,2.75,22.3,13.1
LINC01347 (GeneID 731275),1,0.551,6.84,5.35
LINC01347 (GeneID 731275),2,4.56,35,16.4
LINC01347 (GeneID 731275),3,-0.125,2.09,3.85
EED (GeneID 8726),1,-0.182,1.68,5.88
EED (GeneID 8726),2,1.38,12.7,8.91
EED (GeneID 8726),3,-0.43,-0.0567,3.33
CETP (GeneID 1071),1,0.26,4.79,6.67
CETP (GeneID 1071),2,0.0198,3.11,6.13
CETP (GeneID 1071),3,0.0873,3.58,5.33
MIDEAS (GeneID 91748),1,1.3,12.1,9.21
MIDEAS (GeneID 91748),2,-0.642,-1.55,2.52
MIDEAS (GeneID 91748),3,1.64,14.5,7.53
MINDY4B (GeneID 646951),1,-0.289,0.936,4.13
MINDY4B (GeneID 646951),2,2.29,19.1,10.3
MINDY4B (GeneID 646951),3,0.612,7.27,5.35
PLXND1 (GeneID 23129),1,-0.0539,2.59,6.39
PLXND1 (GeneID 23129),2,-0.728,-2.15,4.41
PLXND1 (GeneID 23129),3,-1.02,-4.18,2.34
SRSF9 (GeneID 8683),1,-0.214,1.46,5.2
SRSF9 (GeneID 8683),2,2.2,18.4,11.7
SRSF9 (GeneID 8683),3,4.42,34.1,16.9
PLCB3 (GeneID 5331),1,-1.17,-5.24,3.09
PLCB3 (GeneID 5331),2,-1.02,-4.23,3.03
PLCB3 (GeneID 5331),3,4.93,37.7,14.8
TMX4 (GeneID 56255),1,-0.0977,2.28,7.43
TMX4 (GeneID 56255),2,-0.174,1.74,5.06
TMX4 (GeneID 56255),3,-0.218,1.43,4.95

Laid out differently: results already given.
target gene | reagent | G2 robust z-score | G2 cells, % of GMNN control | raw share of cells in G2 (%)
CLCN7 (GeneID 1186) | 1 | 0.237 | 4.64 | 6.98
CLCN7 (GeneID 1186) | 2 | -0.556 | -0.944 | 4.46
CLCN7 (GeneID 1186) | 3 | 3.98 | 31 | 16.5
ZNF576 (GeneID 79177) | 1 | -0.547 | -0.882 | 4.2
